The results in this text go back to PMC6683124.

The chains behind the UniProt entries cited, without tags or fusion partners.
UniProt Q16665: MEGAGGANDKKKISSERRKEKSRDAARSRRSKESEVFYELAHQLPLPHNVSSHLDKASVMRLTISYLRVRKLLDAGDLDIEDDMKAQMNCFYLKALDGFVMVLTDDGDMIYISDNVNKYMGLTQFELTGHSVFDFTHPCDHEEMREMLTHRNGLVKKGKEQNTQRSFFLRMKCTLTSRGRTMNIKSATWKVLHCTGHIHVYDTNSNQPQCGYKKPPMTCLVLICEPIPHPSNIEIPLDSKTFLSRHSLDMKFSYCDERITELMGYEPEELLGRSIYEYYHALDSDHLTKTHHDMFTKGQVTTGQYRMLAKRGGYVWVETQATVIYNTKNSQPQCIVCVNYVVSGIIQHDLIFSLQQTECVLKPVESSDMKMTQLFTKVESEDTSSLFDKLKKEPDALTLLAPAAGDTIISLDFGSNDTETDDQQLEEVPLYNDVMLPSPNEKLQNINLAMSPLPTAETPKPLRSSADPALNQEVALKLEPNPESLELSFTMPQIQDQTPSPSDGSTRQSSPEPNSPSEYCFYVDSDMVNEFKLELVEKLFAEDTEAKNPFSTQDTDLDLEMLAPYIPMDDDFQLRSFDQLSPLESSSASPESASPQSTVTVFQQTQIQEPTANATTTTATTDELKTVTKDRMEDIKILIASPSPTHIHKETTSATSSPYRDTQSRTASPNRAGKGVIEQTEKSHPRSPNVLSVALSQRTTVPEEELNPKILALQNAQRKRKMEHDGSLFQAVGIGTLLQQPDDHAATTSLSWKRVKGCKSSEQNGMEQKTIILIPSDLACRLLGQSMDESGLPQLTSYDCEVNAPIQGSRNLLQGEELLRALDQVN

The target of the assay is T1, bicaudal D homolog 1 (human (endogenous in UCB-MSCs)) (UniProt Q96G01).
T1 sequence: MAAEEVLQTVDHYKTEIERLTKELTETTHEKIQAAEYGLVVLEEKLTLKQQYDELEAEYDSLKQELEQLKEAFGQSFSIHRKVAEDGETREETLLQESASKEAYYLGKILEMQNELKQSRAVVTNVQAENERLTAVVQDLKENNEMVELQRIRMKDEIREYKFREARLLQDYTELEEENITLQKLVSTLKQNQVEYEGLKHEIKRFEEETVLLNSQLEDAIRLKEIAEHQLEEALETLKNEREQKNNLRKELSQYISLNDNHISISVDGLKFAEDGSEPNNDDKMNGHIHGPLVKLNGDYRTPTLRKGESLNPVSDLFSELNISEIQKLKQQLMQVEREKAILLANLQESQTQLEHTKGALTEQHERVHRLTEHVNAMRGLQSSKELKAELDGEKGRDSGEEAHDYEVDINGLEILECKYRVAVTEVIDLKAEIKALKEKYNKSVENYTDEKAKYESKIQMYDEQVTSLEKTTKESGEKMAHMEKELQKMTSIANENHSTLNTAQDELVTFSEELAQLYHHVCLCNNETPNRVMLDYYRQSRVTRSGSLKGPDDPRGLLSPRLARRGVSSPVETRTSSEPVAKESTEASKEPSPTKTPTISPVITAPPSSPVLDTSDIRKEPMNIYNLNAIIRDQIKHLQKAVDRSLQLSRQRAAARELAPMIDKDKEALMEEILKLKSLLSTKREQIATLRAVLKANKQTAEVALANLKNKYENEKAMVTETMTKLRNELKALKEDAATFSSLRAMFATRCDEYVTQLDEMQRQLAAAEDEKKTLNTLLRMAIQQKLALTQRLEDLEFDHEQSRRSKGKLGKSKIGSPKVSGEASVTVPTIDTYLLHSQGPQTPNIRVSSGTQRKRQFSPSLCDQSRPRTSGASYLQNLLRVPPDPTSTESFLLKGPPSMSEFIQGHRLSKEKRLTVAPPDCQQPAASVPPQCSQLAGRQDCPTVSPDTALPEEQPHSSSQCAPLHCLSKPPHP
In words: co-IP; UCB-MSC lysate (20 mM Tris-HCl pH 8.0, 137 mM NaCl, 1% Nonidet P-40, 2 mM EDTA) incubated 6 h at 4°C with BICD1 or rabbit IgG antibodies on protein G magnetic beads; blotted for HIF1α and Dynein IC; cells with or without cycloheximide (10 μM) pretreatment and cP1P (1 μM) for 24 h.

These are yes or no findings as the source states them, for the method shown. Binding seen in cells or lysates may run through a third protein. Some binding calls cover weakened binding; strength is not graded here.

With “hypoxia-inducible factor 1 alpha (from UniProt Q16665 1-826)”, the binding entry is “binds”.
